Source: PubChem BioAssay AID2685 (National Center for Advancing Translational Sciences (NCATS), 2010)
The other results are listed elsewhere or left out. The main result of the screen is listed elsewhere. These columns were measured beside it and carry no call. Most of these compounds were active or inconclusive in the main read-out, so they are no random draw. Potencies come from curve fits of mixed quality, noted in brackets.

Assay: qHTS Assay for Lipid Storage Modulators in Drosophila S3 Cells;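 for cell number change: cells counted by Cell Tracker Red CMTPX staining in the red channel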
Settings: BODIPY lipid droplet fluorescence, 18-24 h; for cell number change: measured here: cell count max response, cells fed with added oleic acid
Summary of the method: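 Drosophila S3 cells got compounds at several concentrations plus oleic acid (400 uM solution). Laser-scanning cytometry with 488 nm excitation read lipid droplets at 500-530 nm and cells at 575-640 nm. Percent activity was relative to 20 uM Triacsin C.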

[1] = measured here: lipid fluorescence (Fed channel) AC50, cells fed with added oleic acid
[2] = measured here: cell number channel AC50, cells fed with added oleic acid

Row | Structure (SMILES) | cell number change [%] | AC50 [1] | AC50 [2]
1 | Fc1ccc(CNC(=S)Nc2cccc(Cl)c2)cc1 | -3.14 | – | –
2 | CN(Cc1cc(=O)n2ccsc2n1)c1ccccc1 | 103 | – | –
3 | CC(=O)c1ccc(N2CCN(C(=O)c3nn(C)c4c3CS(=O)(=O)c3ccccc3-4)CC2)cc1 | 21.2 | 0.259 µM [rising, full curve, poor fit] | –
4 | COc1ccc(OC)c(C2Nc3ccccc3NC3=C2C(=O)CC(C)(C)C3)c1 (stereo not given) | -4.2 | 29.1 µM [rising, single point] | –
5 | O=S(=O)(NCc1ccc(C(F)(F)F)cc1)c1ccc(-n2cnnn2)cc1 | -9.35 | 6.51 µM [rising, partial curve] | –
6 | Cc1cc(C(=O)CSc2n[nH]c(N)n2)c(C)n1-c1cccc(F)c1 | -14.9 | 0.259 µM [rising, full curve, poor fit] | –
7 | CCCCn1c(N)c(N(CC(C)C)C(=O)C2CC(=O)N(c3ccc4c(c3)OCCO4)C2)c(=O)[nH]c1=O (stereo not given) | 12 | – | –
8 | N#Cc1cc([N+](=O)[O-])ccc1NC(=O)COC(=O)C12CC3CC(CC(C3)C1)C2 | -18.3 | 29.1 µM [falling, single point] | –
9 | O=C(Nc1cc(F)ccc1F)C1CCCN(c2ncnc3c2nc2n3CCCCC2)C1 (stereo not given) | 13.4 | 4.61 µM [falling, single point] | –
10 | Cc1nn(C)c(Cl)c1/C=C/C(=O)O | -28 | – | –
11 | Cc1ccc(C(=O)Oc2cccc(NC(=O)c3ccco3)c2)cc1S(=O)(=O)N1CCC(C)CC1 | -68.2 | – | 29.1 µM [falling, single point]
12 | CNC(=S)Nc1cc2oc3ccccc3c2cc1OC | 18.5 | – | –
13 | COC(=O)CN1C(=S)N(c2ccc(Cl)cc2)C(=O)C1CC(=O)Nc1ccccc1 (stereo not given) | -43.6 | 29.1 µM [falling, single point] | 29.1 µM [falling, single point]
14 | Cc1cc([N+](=O)[O-])ccc1NC(=O)Nc1ccc(F)cc1F | -47.7 | 14.1 µM [falling, single point] | 11.2 µM [falling, partial curve]
15 | Cc1ccc(N(CCC#N)C(=O)CSc2nnc3ccccn23)cc1 | -8.28 | 1.3 µM [rising, full curve, poor fit] | –
16 | C=CCn1c(SCC(=O)Nc2cc(C)ccc2C)nnc1-c1cnccn1 | 2.9 | 0.00411 µM [rising, full curve, poor fit] | –
17 | Cc1cc(C)nc(Nc2n[nH]c(COc3cccc4ccccc34)n2)n1 | 21.6 | – | –
18 | Cc1ccc(N2C(=O)C3CCCN3C2=S)c(C)c1 (stereo not given) | -19.9 | 20.6 µM [rising, single point] | –
19 | COC(=O)c1ccc2c(=O)n(NC(=O)C(c3ccccc3)c3ccccc3)c(=S)[nH]c2c1 | 35.7 | – | 29.1 µM [rising, single point]
20 | O=C(/C=C/c1ccc([N+](=O)[O-])cc1)NCc1ccccn1 | – | 14.6 µM [rising, partial curve] | –

Row | Structure (SMILES) | cell number change [%] | AC50 [1] | AC50 [2]
21 | Cc1nnc(SCC(=O)c2ccc([N+](=O)[O-])cc2)s1 | -24.9 | – | –
22 | Nc1nc(Br)c2ccccc2c1-c1ccccc1 | 33.6 | 32.6 µM [rising, single point] | 20.6 µM [rising, single point]
23 | CCOc1ccccc1C(=O)Nc1cc2c(cc1N1CCCC1)n(CC)c(=O)n2CC | -16.4 | 0.58 µM [falling, single point] | 0.326 µM [falling, full curve]
24 | COc1cccc(N2CCN(C(C)C(=O)NC34CC5CC(CC(C5)C3)C4)CC2)c1 (stereo not given) | – | 5.62 µM [falling, single point] | –
25 | O=C(NCc1ccco1)C1CCN(C(=O)Cc2ccccc2)CC1 | -133 | – | –
26 | O=S(=O)(c1cnc[nH]1)N1CCN(C(c2ccc(F)cc2)c2ccc(F)cc2)CC1 | -30.8 | – | 16.4 µM [falling, single point]
27 | Cc1ccc(-c2nc3ccccc3[nH]2)cc1NC(=S)NC(=O)c1ccccc1Br | -41 | 29.1 µM [falling, single point] | 18.4 µM [falling, single point]
28 | CCOC(=O)C1=CC[C@H]2c3c(c4ccccc4n3C)C(=O)C1N2S(=O)(=O)c1ccc(C)cc1 | 23.7 | 0.0731 µM [rising, single point] | –
29 | CC(C)Cn1c(N)c(C(=O)COC(=O)c2ccc(Cl)cc2)c(=O)n(C)c1=O | – | – | 2.59 µM [rising, partial curve]
30 | Cc1cc2c(cc1S(=O)(=O)N1CCc3ccccc31)NC(=O)CO2 | 97.6 | – | 13 µM [rising, partial curve]
31 | O=C1/C(=C/c2ccco2)SC(=S)N1CC1CCCO1 (stereo not given) | -4.44 | 0.731 µM [falling, single point] | –
32 | CCN1CCN(/C=N/c2nc3c(s2)CCCC3)CC1 | 9.39 | 2.59 µM [falling, full curve, poor fit] | –
33 | CCOC(=O)C1CCN(S(=O)(=O)c2c(C)[nH]c(=O)[nH]c2=O)CC1 | -177 | – | 29.1 µM [falling, single point]
34 | COc1c(C(=O)N2CCCC2)ccc2ccccc12 | -116 | 5.8 µM [falling, partial curve] | 25.9 µM [falling, partial curve]
35 | COC(=O)N/N=C/c1ccccc1 | 14.4 | 0.00517 µM [falling, full curve] | –
36 | O=C(c1ccccc1NS(=O)(=O)c1ccccc1[N+](=O)[O-])N1CCCC1 | 24.9 | 4.11 µM [rising, single point] | –
37 | CCCCn1c(N)c(N(Cc2ccccc2OC)C(=O)C(C)Oc2ccc(F)cc2)c(=O)[nH]c1=O (stereo not given) | -18 | 32.6 µM [falling, single point] | –
38 | CN(C)CCn1c2c(c(SCC(=O)NCc3ccccc3)nc1=O)CCC2 | -7.91 | 0.0517 µM [falling, full curve, poor fit] | –
39 | COc1ccc2sc(-c3ccccc3OC)c(-c3ccc(O)cc3)c2c1 | 11.4 | – | 0.082 µM [falling, single point]
40 | CCOC(=O)c1c(C)nc2sc3c(=O)[nH]cnc3c2c1-c1ccc(OC)cc1 | 11.1 | 4.61 µM [rising, full curve, poor fit] | –

Entries from the list above containing a cyano group:
Row | Structure (SMILES) | cell number change [%] | AC50 [1] | AC50 [2]
8 | N#Cc1cc([N+](=O)[O-])ccc1NC(=O)COC(=O)C12CC3CC(CC(C3)C1)C2 | -18.3 | 29.1 µM [falling, single point] | –
15 | Cc1ccc(N(CCC#N)C(=O)CSc2nnc3ccccn23)cc1 | -8.28 | 1.3 µM [rising, full curve, poor fit] | –
